Experimental data as given in doi:10.1101/2020.04.06.026963.
Numbering of substitutions follows the chain as printed. No constants are given. Whether binding was seen depends on the method and setting. In cells and extracts the contact can be indirect. Some results given as binding are weak or reduced against the parent protein; the word gives no strength. For some assays here: Where a sequence is shown, tags or fusion partners need not be part of it. Values belong to the molecule of their own block, whether it stands above or below them.

Chains of the proteins cited; added tags and fusions are not shown. Lines headed by an entry give the natural chain unless they say otherwise; changes in a name come on top.
UniProt P15923: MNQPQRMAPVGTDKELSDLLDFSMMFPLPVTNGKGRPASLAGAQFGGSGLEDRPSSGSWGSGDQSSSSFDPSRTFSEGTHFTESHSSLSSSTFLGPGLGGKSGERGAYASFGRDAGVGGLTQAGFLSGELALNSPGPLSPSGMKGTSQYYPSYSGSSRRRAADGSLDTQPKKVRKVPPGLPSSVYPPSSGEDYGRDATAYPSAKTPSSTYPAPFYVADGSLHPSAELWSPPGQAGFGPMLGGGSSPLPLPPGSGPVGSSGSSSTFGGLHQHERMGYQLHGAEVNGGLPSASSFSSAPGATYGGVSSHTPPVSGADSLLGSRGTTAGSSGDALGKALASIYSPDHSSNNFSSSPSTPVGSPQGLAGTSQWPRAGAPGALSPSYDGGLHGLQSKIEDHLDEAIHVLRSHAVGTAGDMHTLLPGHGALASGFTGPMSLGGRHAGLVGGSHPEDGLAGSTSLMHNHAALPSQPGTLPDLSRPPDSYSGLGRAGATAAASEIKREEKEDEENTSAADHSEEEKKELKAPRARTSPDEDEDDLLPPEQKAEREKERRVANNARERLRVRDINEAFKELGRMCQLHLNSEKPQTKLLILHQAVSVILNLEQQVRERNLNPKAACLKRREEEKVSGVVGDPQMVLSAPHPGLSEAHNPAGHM
UniProt Q99081: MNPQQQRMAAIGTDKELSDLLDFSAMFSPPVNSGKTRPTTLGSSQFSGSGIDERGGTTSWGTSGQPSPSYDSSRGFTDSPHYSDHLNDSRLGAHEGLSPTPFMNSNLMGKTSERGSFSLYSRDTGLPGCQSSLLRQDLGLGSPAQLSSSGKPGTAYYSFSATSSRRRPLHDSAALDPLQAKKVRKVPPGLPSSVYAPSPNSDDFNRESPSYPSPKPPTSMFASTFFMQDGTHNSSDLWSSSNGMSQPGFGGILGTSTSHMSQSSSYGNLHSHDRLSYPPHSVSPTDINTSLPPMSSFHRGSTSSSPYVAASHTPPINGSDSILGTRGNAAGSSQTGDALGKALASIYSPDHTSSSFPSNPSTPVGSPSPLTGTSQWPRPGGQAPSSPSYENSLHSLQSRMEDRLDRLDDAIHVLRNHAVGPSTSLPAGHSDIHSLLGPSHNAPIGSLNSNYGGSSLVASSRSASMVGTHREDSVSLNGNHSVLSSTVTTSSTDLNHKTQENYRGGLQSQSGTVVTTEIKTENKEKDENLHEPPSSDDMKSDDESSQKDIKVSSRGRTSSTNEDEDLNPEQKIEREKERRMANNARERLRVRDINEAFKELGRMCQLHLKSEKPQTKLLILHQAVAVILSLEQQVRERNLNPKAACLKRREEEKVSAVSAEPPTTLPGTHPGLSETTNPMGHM
UniProt Q61286: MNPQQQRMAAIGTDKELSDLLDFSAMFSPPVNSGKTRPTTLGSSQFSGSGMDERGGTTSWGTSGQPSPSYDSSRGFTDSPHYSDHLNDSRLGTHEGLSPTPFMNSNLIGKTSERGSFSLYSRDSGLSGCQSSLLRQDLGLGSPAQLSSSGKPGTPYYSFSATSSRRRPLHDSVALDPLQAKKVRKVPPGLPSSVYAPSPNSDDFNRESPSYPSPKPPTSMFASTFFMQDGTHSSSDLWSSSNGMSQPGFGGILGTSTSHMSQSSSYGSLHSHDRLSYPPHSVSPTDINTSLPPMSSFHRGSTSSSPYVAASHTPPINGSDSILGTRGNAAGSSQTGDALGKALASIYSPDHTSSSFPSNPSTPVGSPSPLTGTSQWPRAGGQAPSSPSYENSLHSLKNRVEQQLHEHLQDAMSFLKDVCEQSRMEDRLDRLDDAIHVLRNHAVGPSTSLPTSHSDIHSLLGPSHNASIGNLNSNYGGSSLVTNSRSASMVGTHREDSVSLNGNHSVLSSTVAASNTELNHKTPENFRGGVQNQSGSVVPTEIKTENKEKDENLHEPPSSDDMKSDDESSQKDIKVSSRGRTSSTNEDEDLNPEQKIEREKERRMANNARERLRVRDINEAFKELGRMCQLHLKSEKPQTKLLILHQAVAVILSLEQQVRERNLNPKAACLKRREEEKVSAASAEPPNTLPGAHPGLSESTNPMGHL

Legend:
Assay in all cases: co-IP
Flag-tagged ID4 protein = target: T1, Flag-tagged ID4 protein (UniProt P47928)
T1 sequence: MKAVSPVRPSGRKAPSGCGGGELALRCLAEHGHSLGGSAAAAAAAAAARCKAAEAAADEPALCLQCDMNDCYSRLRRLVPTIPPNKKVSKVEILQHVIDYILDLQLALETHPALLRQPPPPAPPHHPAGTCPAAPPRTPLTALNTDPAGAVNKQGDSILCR

[1] = target: T2, Inhibitor of Differentiation 4 (ID4) (human (endogenous in PMC42)) (UniProt P47928)
T2 sequence: T1 sequence

[2] = target: E2A (human (endogenous in PMC42)) (UniProt P15923)
[3] = target: HEB (human (endogenous in PMC42)) (UniProt Q99081)
[4] = target: E2A (human (endogenous in MCF10A)) (UniProt P15923)
[5] = target: HEB (human (endogenous in MCF10A)) (UniProt Q99081)
[6] = target: HEB (mouse (endogenous in mammary gland)) (UniProt Q61286)
[7] = target: HEB (mouse (endogenous in Comma-Dβ)) (UniProt Q61286)

binding (Flag-tagged ID4 protein): binds | binding [1]: binds
Molecule: HEB (from UniProt Q99081 1-682)

binding [2]: binds | binding [3]: binds
B1: Inhibitor of Differentiation 4 (ID4) (protein, UniProt P47928 1-161)
chain: T1 sequence

binding [4]: binds | binding [5]: binds
B2: Flag-tagged ID4 protein (protein, UniProt P47928 1-161)
chain: T1 sequence

binding [6]: binds
B3: FlagV5-tagged ID4 protein (protein, UniProt P41139 1-161)
chain: T1 sequence with H125L, T130A, A133V

binding [7]: binds
B4: Inhibitor of Differentiation 4 (ID4) (protein, UniProt P41139 1-161)
chain: T1 sequence with H125L, T130A, A133V
